In this test the target is T1, WIPI1^HA (WIPI1 with a C-terminal HA tag) (human) (UniProt Q5MNZ9).
T1 sequence: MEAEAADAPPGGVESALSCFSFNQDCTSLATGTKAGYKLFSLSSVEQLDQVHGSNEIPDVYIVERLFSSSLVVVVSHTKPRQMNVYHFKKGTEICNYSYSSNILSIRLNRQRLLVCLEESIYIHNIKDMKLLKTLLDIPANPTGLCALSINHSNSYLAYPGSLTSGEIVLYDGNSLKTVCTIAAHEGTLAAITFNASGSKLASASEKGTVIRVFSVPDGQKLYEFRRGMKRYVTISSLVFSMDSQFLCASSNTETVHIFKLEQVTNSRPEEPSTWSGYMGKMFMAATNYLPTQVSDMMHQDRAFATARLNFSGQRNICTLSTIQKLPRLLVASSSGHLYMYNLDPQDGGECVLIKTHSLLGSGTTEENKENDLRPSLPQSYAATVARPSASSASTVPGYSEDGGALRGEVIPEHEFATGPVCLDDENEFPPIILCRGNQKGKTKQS
As to the kind of experiment: co-IP; co-immunoadsorption: clarified Triton X-100 extracts (150 mM NaCl, 2 mM EDTA, 40 mM HEPES-NaOH pH 7.4, 1% Triton X-100, phosphatase and protease inhibitors) of HK2 cells stably expressing the HA-tagged PROPPIN, incubated 2 hr at 4°C with anti-HA beads, washed three times; adsorbed endogenous proteins shown by western blot; parental HK2 cells without HA tag as control. (In general: In western blotting, separated proteins are transferred to a membrane and probed.)

Results on 1 substance are retold here after PMC13399975.

Results are given in words; binding and its absence hold for the method and conditions named. In cells and extracts the contact can be indirect. Tags and fused reporters may be left off the sequences shown.

Turning to “VPS26C (Retriever subunit) (from UniProt O14972 1-297)”, the binding entry was “no binding”.
